In PMC9317851, “Genomic Characterization of Bacillus safensis Isolated from Mine Tailings in Peru and Evaluation of Its Cyanide-Degrading Enzyme CynD” (Applied and Environmental Microbiology, 2022) one finds binding data, which are given here for 1 molecule.

Results are given in words; binding and its absence hold for the method and conditions named. Some entries that bind do so weakly or less than the wild type. Tags and fused reporters may be left off the sequences shown.

Test [1] has as its target Cyanide dihydratase CynD from Bacillus safensis PER-URP-08 (CynD_(PER-URP-08)), recombinant with C-terminal 6xHis tag (Bacillus safensis PER-URP-08) (UniProt P0DXY3). In words: negative-stain transmission electron microscopy; purified CynD at 3.25 or 1.625 mg/mL in 20 mM Tris-HCl (pH 8.0), 100 mM NaCl; stained with 2% uranyl acetate; both purified.
Test [2] shares this target. In words: condition: only at pH 11 (100-μL injection of 89.36 μM CynD); SEC-MALS; pH 11; 100 mM NaCl, 20 mM CAPS; 100-μL injection of 3.47 mg/mL (89.36 μM) CynD; Superdex 200 increase 10/300 GL; both purified.

B1: Cyanide dihydratase CynD from Bacillus safensis PER-URP-08 (CynD_(PER-URP-08)), recombinant with C-terminal 6xHis tag (enzyme, UniProt P0DXY3 1-330, looked up)
chain: MTSIYPKFRAAAVQAAPVYLNLEATVEKSCELIDEAASNGAKLVAFPEAFLPGYPWFAFIGHPEYTRKFYHELYKNAVEIPSLAIQKISEAAKRNETYVCISCSEKDGGSLYLAQLWFNPNGDLIGKHRKMRASVAERLIWGDGSGSMMPVFQTDIGNLGGLMCWEHQVPLDLMAMNAQNEQVHVASWPGYFDDEISSRYYAIATQTFVLMTSSIYTEEMKEMICLTQEQRDYFETFKSGHTCIYGPDGEPISDMVPAETEGIAYAEIDVERVIDYKYYIDPAGHYSNQSLSMNFNQQPTPVVKQLYHQKNEVFTYEDIQYQHGILEEKV
notes: Cyanide dihydratase CynD of Bacillus safensis PER-URP-08, locus EGI07_08135; monomer 38.5 kDa; The forward primer carries the NdeI site CATATG followed by a further atg, so an added N-terminal Met may be present; also called recombinant CynD; EGI07_08135; source: E. coli BL21(DE3)/pLysS, purified (Ni-NTA, size exclusion chromatography); not shown: 6xHis, C-terminal, kept
With B1, the values for the binding result in test [1] and in test [2] were “binds” and “no binding”, respectively.
